We go through 3 molecules from doi:10.1101/2025.05.27.656052.

No constants are given. Whether binding was seen depends on the method and setting. In cells and extracts the contact can be indirect. Some binding calls cover weakened binding; strength is not graded here. For some of these results: Where a sequence is shown, tags or fusion partners need not be part of it.

What all share (assay): co-IP
Assay [1] addresses T1, GFP-tagged NINJ2 (pEGFP-N1-NINJ2), full-length Ninjurin2 (UniProt Q9NZG7).
T1 sequence: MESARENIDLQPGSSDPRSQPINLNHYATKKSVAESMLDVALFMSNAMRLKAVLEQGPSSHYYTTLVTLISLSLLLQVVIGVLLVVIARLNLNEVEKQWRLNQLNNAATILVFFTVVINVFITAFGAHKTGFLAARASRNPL

Assay [2] deals with GFP-NINJ2-aa1-62 (UniProt Q9NZG7).
Assay [3] has as its target GFP-NINJ2-aa63-142 (UniProt Q9NZG7).
The target in assay [4] is GFP-NINJ2-TM1 (UniProt Q9NZG7).
The target in assay [5] is GFP-NINJ2-TM2 (UniProt Q9NZG7).
The target in assay [6] is T2, Flag-Ninjurin2 (UniProt Q9NZG7).
T2 sequence: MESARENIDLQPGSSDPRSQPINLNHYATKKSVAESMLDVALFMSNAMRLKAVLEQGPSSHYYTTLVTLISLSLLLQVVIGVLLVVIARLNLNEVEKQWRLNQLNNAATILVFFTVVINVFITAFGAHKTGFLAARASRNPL

Assay [7] has as its target Flag-tagged PDGFR-β (p3×Flag-CMV-10-PDGFRB) (UniProt P09619).

Regarding “Flag-tagged PDGFR-β (p3×Flag-CMV-10-PDGFRB) (from UniProt P09619 33-1106) (receptor)”, the binding result is reported as “binds” in assay [1]; “no binding” in assay [2]; “binds” in assay [3]; “binds” in assay [4]; “binds” in assay [5].
On to “GFP-PDGFRB-TyrKc (from UniProt P09619 600-958) (domain or fragment)”, for which the binding entry in assay [6] was “binds”.

B1: GFP-tagged NINJ2 (pEGFP-N1-NINJ2), full-length Ninjurin2 (protein, UniProt Q9NZG7 1-142)
chain: MESARENIDLQPGSSDPRSQPINLNHYATKKSVAESMLDVALFMSNAMRLKAVLEQGPSSHYYTTLVTLISLSLLLQVVIGVLLVVIARLNLNEVEKQWRLNQLNNAATILVFFTVVINVFITAFGAHKTGFLAARASRNPL
In the case of B1, the binding entry in assay [7] is listed as “binds”.
